Source: patent publication US7125847B1, “Mechanically activated channel blocker” (priority 2000, dated 2006)
Some entries share one result that the patent states for a list of compounds.

Tested on: MSC currents in normal rat kidney cells
Experiment: Outside-out patch clamp of mechanosensitive channel currents in normal rat kidney cells
Format: cell-based
Conditions: 5 μM, outside-out patches held at −50 mV
Procedure: NRK cell culture: Normal rat kidney cells (CCA identifier is 49F) at passages 20–25, were maintained in DMEM, 5% fetal bovine serum and 1%
Penicillin/Streptomycin. Cells were plated onto poly-L-lysine coated cover-slips, and used in experiments between 2 and 6 days after passage.
Electrophysiology: An Axopatch 200B (Axon Instruments, California) was used for patch clamping, while experimental protocols and data acquisition were controlled by Axon Instruments pClamp8 software via a Digidata 1322A acquisition system. Currents were sampled at 10 KHz and low-pass filtered at 2 KHz through the 4 pole Bessel filter on the Axopatch 200B. All potentials are defined with respect to the extracellular surface. Electrodes were pulled on a Model PC-84 pipette puller (Brown-Flaming Instruments, California), painted with Sylgard 184 (Dow Corning Corp. Midland Mich.) and fire polished. Electrodes were filled with KCl saline (KCl 140 mM, EGTA 5 mM, MgSO4 2 mM, Hepes 10 mM, pH 7.3) and had resistances ranging from 10–20 MΩ. Bath saline consisted of NaCl—140 mM, KCl—5 mM, CaCl2—2 mM, MgSO4—0.5 mM, glucose—6 mM and Hepes—10 mM, pH 7.3. Pressure and suction were applied to the pipette by a HSPC-1 pressure clamp (ALA Scientific Instruments, New York) controlled by the pClamp software. […]

GCLEFWWKCNPNDDKCCRPKLKCSKLFKLCNFSFGK [GsMTx-4]
block of mechanically sensitive current: > 90%

cloned: GsMTx4 liberated by thrombin from a thioredoxin fusion protein, with three extra amino acids at the N-terminus (SGMGCLEFWWKCNPNDDKCCRPKLKCSKLFKLCNFSF)
block of mechanically sensitive current (listed as recombinant): > 90%
